Measurements from patent US20230399393A1, “METHODS TO EXTEND HEALTH-SPAN AND TREAT AGE-RELATED DISEASES” (National University of Singapore, priority 2020, published 2023).
At least one structure is not confirmed: it was looked up by name or label, or the drawing left a doubt.

Experiments:
[1] = system: Primary human cardiac fibroblasts; assay: IL-11-stimulated fibroblasts with Rapamycin, Wortmannin or U0126, western blot; format: cell-based; settings: IL11 10 ng/ml 24 hours; Rapamycin 10 nM, Wortmannin 1 μM, U0126 10 μM
Procedure: FIG. 18. Western blot image showing the levels of p-LKB1, LKB1, p-AMPK, AMPK in primary human cardiac fibroblasts that are unstimulated (BL+DMSO) or stimulated with IL11 for 24 hours in the presence of either DMSO, Rapamycin, Wortmannin, or U0126. IL11(10 ng/ml), Rapamycin (10 nM), Wortmannin (1 μM), U0126 (10 μM).
Primary human cardiac fibroblasts were stimulated with IL-11 for 24 hours in the presence of either DMSO, Rapamycin (mTOR inhibitor), Wortmannin (phosphoinositide 3-kinases (PI3K) inhibitor), or U0126 (MEK1/2 inhibitor) and the levels of p-LKB1 and p-AMPK were measured by western blot (FIG. 18).

[2] = system: rheumatoid synovial cells; settings: upon treatment; cited from earlier work

Row | SMILES | level of p-AMPK [1] | level of p-LKB1 [1] | expression of IL-11 [2]
1 | COC[C@H]1OC(=O)c2coc3c2[C@@]1(C)C1=C(C3=O)[C@@H]2CCC(=O)[C@@]2(C)C[C@H]1OC(C)=O [Wortmannin] | increases | decreases | –
2 | CO[C@H]1C[C@@H]2CC[C@@H](C)[C@@](O)(O2)C(=O)C(=O)N2CCCC[C@H]2C(=O)O[C@H]([C@H](C)C[C@@H]2CC[C@@H](O)[C@H](OC)C2)CC(=O)[C@H](C)/C=C(\C)[C@@H](O)[C@@H](OC)C(=O)[C@H](C)C[C@H](C)/C=C/C=C/C=C/1C [rapamycin] | increases | decreases | –
3 | C[C@@H]1C[C@H]2[C@@H]3CCC4=CC(=O)C=C[C@]4(C)[C@@]3(F)[C@@H](O)C[C@]2(C)[C@@]1(O)C(=O)CO [dexamethasone] | – | – | reduction
